From paper PMC9224613 come the findings set out here.

Protein sequences, listed by entry. Tags and fused reporters are not part of them.
UniProt P35712: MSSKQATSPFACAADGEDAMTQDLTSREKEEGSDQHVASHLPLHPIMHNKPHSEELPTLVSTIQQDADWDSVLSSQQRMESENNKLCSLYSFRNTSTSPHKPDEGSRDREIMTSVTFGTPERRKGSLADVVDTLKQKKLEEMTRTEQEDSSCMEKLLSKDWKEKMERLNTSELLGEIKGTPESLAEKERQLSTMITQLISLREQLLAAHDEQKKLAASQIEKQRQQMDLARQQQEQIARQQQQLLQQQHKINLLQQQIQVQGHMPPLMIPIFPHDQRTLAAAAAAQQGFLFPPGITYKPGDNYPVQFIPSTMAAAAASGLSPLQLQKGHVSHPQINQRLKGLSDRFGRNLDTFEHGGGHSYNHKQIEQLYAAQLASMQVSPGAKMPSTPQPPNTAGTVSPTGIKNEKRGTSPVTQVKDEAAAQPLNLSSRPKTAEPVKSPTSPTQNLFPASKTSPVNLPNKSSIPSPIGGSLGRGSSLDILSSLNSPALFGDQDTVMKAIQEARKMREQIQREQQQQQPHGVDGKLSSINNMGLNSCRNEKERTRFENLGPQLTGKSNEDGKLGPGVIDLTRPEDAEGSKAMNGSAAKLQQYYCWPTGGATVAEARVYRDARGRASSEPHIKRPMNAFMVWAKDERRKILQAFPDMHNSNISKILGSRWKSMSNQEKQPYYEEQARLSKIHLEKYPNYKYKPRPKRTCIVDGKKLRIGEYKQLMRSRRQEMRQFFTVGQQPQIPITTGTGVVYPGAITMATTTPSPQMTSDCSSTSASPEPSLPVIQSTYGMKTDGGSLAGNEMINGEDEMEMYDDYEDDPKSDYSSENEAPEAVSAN
UniProt Q13263: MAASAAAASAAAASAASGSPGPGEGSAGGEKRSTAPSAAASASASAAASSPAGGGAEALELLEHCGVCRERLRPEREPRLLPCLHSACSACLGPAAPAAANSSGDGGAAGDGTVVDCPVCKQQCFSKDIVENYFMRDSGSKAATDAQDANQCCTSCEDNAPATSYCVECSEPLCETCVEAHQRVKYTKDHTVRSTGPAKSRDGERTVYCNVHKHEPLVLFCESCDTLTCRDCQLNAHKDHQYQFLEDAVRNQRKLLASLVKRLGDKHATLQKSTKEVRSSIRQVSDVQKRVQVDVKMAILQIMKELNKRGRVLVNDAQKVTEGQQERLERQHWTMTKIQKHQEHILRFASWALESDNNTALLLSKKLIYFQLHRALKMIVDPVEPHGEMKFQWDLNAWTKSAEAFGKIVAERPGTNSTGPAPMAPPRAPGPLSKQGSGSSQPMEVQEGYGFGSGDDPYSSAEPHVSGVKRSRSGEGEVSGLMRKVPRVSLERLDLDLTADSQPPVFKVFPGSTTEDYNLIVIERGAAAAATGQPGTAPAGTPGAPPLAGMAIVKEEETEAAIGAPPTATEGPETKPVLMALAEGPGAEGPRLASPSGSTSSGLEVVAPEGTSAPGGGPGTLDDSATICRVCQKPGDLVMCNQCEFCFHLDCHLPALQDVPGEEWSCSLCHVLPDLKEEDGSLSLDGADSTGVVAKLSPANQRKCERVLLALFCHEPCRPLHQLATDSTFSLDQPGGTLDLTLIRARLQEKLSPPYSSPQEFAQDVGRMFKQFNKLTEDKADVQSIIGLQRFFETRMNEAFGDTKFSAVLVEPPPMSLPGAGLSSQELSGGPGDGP

No constants are given. Whether binding was seen depends on the method and setting. Binding seen in cells or lysates may run through a third protein. Some results given as binding are weak or reduced against the parent protein; the word gives no strength. For some assays here: Sequences can lack the tags named with a protein.

For one assay, the target named is FLAG-SOX6 (UniProt P35712). Briefly: co-IP; FLAG-SOX6 and HA-TRIM28 expression plasmids transfected into HEK293T; whole-cell extracts IPed with anti-FLAG, Western blotting with anti-HA and anti-FLAG. On the technique in general: A western blot detects proteins with antibodies after separation by electrophoresis.
In the next assay the target is T1, FLAG-MAGEC2 (UniProt Q9UBF1).
T1 sequence: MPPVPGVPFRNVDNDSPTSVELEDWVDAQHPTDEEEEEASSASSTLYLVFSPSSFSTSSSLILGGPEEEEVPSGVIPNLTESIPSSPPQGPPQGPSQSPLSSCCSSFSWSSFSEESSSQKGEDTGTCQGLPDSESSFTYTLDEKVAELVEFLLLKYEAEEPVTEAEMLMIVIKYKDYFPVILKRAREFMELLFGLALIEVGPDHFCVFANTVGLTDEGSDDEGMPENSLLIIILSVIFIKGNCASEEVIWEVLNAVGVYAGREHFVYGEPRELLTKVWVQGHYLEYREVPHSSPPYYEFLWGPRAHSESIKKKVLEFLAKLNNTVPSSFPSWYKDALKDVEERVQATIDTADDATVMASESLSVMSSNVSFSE
Briefly: co-IP; FLAG-MAGEC2 expression vector transfected into HEK293T; IP-Western blotting of whole-cell extracts (0.4 M NaCl, 0.5% Triton-X 100 extraction buffer), antibody on Protein-G-Sepharose beads, 2-3 h at 4 °C; endogenous TRIM28 detected.

In the case of HA-TRIM28 (from UniProt Q13263 1-835), the binding result with FLAG-SOX6 is “binds”.

As for “endogenous TRIM28 (from UniProt Q13263 1-835)”, the binding result in the assay with FLAG-MAGEC2 is reported as “binds”.
